Values after ≈ are worked out from the molar mass of the structure shown. This is one part of the list. The main result of the screen is listed elsewhere. These columns were measured beside it and carry no call.
Assay: Confirmatory growth inhibition assay, mycobacterium tuberculosis h37rv, with cytotoxicity (AID 1332);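 for CC50: Vero cells exposed to compounds for 72 hours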;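 for IC50: bacteria incubated 7 days before adding Alamar blue readout reagent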
Settings: M. tuberculosis H37Rv growth inhibition; CC50: measured here: Vero cell cytotoxicity; IC50: measured here: IC50 H37Rv replicates

Row | SMILES | IC50 [µg/mL] | CC50 [µg/mL]
1 | CCN1CCN(C(=O)N[C@@H](C(=O)N[C@@H]2C(=O)N3[C@@H]2SC(C)(C)[C@@H]3C(=O)O)c2ccccc2)C(=O)C1=O | > 20 | –
2 | CN(C)C(=N)N=C(N)N | > 20 | –
3 | C[C@]12N[C@H](Cc3ccccc31)c1ccccc12 | > 20 | –
4 | O[C@@H]1CCCC[C@H]1N1CCC(c2ccccc2)CC1 | > 20 | –
5 | COc1ccc(NS(=O)(=O)c2ccc(N)cc2)nn1 | > 20 | –
6 | Nc1ccc(C(=O)NCC(=O)O)cc1 | > 20 | –
7 | OC[C@H]1O[C@@H](Oc2ccc(O)cc2)[C@H](O)[C@@H](O)[C@@H]1O | > 20 | –
8 | OCCN1CCN(CCCN2c3ccccc3Sc3ccc(Cl)cc32)CC1 | 6.29 (≈ 15.6 µM) | > 6
9 | C#CCN(C)Cc1ccccc1 | > 20 | –
10 | COc1ccc2cc(CCC(C)=O)ccc2c1 | > 20 | –
11 | CCn1cc(C(=O)O)c(=O)c2ccc(C)nc21 | > 19.4 | –
12 | CC1=C2[C@H]3OC(=O)[C@@H](C)[C@@H]3CC[C@@]2(C)C=CC1=O | > 20 | –
13 | CCN(CC)CCNC(=O)c1cc(S(C)(=O)=O)ccc1OC | > 20 | –
14 | O=C(CCCN1CC=C(n2c(=O)[nH]c3ccccc32)CC1)c1ccc(F)cc1 | > 20 | –
15 | CN/C(=C/[N+](=O)[O-])NCCSCc1ccc(CN(C)C)o1 | > 20 | –
16 | COc1cc2nc(N3CCN(C(=O)c4ccco4)CC3)nc(N)c2cc1OC | > 20 | 3.95 (≈ 10.3 µM)
17 | CCn1cc(C(=O)O)c(=O)c2cnc(N3CCNCC3)nc21 | > 20 | –
18 | COc1nc(C)nc(Cl)c1NC1=NCCN1 | > 20 | –
19 | Cc1ccc(S(=O)(=O)NC(=O)NN2CC3CCCC3C2)cc1 (stereo not drawn) | > 20 | –
20 | COc1ccc(-c2cc(=O)c3c(O)cc(O)cc3o2)cc1 | > 20 | –
21 | O=c1c(O)c(-c2cc(O)c(O)c(O)c2)oc2cc(O)cc(O)c12 | > 20 | –
22 | C[C@H]1CC[C@@H]2[C@@H](C)[C@H]3[C@H](C[C@H]4[C@@H]5CC=C6C[C@@H](O[C@@H]7O[C@H](CO)[C@H](O)[C@H](O[C@@H]8O[C@H](CO)[C@@H](O)[C@H](O)[C@H]8O)[C@H]7O[C@@H]7O[C@@H](C)[C@H](O)[C@@H](O)[C@H]7O)CC[C@]6(C)[C@H]5CC[C@]34C)N2C1 | > 20 | –
23 | COc1ccc(C(=O)NCc2cccnc2)cc1C(=O)NCc1cccnc1 | > 20 | –
24 | CN1C[C@H](CO)C=C2c3cccc4[nH]cc(c34)C[C@H]21 | > 20 | –
25 | COc1ccc2[nH]cc(CCNC(C)=O)c2c1 | > 20 | –
26 | O=C(NCCNCC(O)COc1ccc(O)cc1)N1CCOCC1 (stereo not drawn) | > 20 | –

Row | SMILES | IC50 [µg/mL] | CC50 [µg/mL]
27 | CCN(Cc1ccncc1)C(=O)C(CO)c1ccccc1 (stereo not drawn) | > 20 | –
28 | COc1ccc(CCN2CCC(Nc3nc4ccccc4n3Cc3ccc(F)cc3)CC2)cc1 | 4.48 (≈ 9.76 µM) | 4.36 (≈ 9.51 µM)
29 | CCN(CC)CC#CCOC(=O)C(O)(c1ccccc1)C1CCCCC1 (stereo not drawn) | > 20 | –
30 | Cc1ncc([N+](=O)[O-])n1CCO | > 20 | –
31 | Fc1ccc(C(OCCN2CCN(CCCc3ccccc3)CC2)c2ccc(F)cc2)cc1 | 3.04 (≈ 6.74 µM) | 5.09 (≈ 11.3 µM)
32 | CC(C)(C)NCC(O)c1cc(Cl)c(N)c(Cl)c1 (stereo not drawn) | > 20 | –
33 | CC(C)NCC(O)COc1ccc(COCCOC(C)C)cc1 (stereo not drawn) | > 20 | –
34 | COC(=O)C1=CCCN(C)C1 | > 20 | –
35 | Nc1nc(=S)c2ncn([C@@H]3O[C@H](CO)[C@@H](O)[C@H]3O)c2[nH]1 | 2.62 (≈ 8.75 µM) | 0.41 (≈ 1.37 µM)
36 | Cc1c(OCC(F)(F)F)ccnc1CS(=O)c1nc2ccccc2[nH]1 (stereo not drawn) | 4.47 (≈ 12.1 µM) | –
37 | CC(=O)N[C@@H](CC(C)C)C(=O)O | > 20 | –
38 | CN(C)CCN(Cc1cccs1)c1ccccn1 | > 20 | –
39 | Clc1ccc(C(Cn2ccnc2)OCc2c(Cl)cccc2Cl)c(Cl)c1 (stereo not drawn) | 1.54 (≈ 3.71 µM) | –
40 | NC(=O)N1c2ccccc2C=Cc2ccccc21 | > 20 | –
41 | NCCC(=O)NCCc1cnc[nH]1 | > 20 | –
42 | O=c1cc(-c2ccc(O)cc2)oc2cc(O)cc(O)c12 | > 20 | > 6
43 | O=C(Cn1ccnc1[N+](=O)[O-])NCCO | > 20 | –
44 | c1ccc(C2CN3CCSC3=N2)cc1 (stereo not drawn) | > 20 | –
45 | COc1cc2cc3c4cc(OC)c(OC)cc4cc[n+]3c(C)c2cc1OC | 0.97 | –
46 | COc1ccc(Cc2nccc3cc(OC)c(OC)cc23)cc1OC | > 20 | > 6
47 | Cc1scc2c1N(C(=O)CN1CCN(C)CC1)c1ccccc1NC2=O | > 20 | –
48 | CCCNC(C)C(=O)Nc1ccccc1C (stereo not drawn) | > 20 | –
49 | COc1ccc(CN(CCN(C)C)c2ccccn2)cc1 | > 20 | –
50 | CC(COc1ccccc1)N(CCCl)Cc1ccccc1 (stereo not drawn) | > 10 | –
51 | CC(=O)c1ccc(S(=O)(=O)NC(=O)NC2CCCCC2)cc1 | > 20 | –

By substructure: the entries above with a COOH group.
Row | SMILES | IC50 [µg/mL] | CC50 [µg/mL]
1 | CCN1CCN(C(=O)N[C@@H](C(=O)N[C@@H]2C(=O)N3[C@@H]2SC(C)(C)[C@@H]3C(=O)O)c2ccccc2)C(=O)C1=O | > 20 | –
6 | Nc1ccc(C(=O)NCC(=O)O)cc1 | > 20 | –
11 | CCn1cc(C(=O)O)c(=O)c2ccc(C)nc21 | > 19.4 | –
17 | CCn1cc(C(=O)O)c(=O)c2cnc(N3CCNCC3)nc21 | > 20 | –
37 | CC(=O)N[C@@H](CC(C)C)C(=O)O | > 20 | –

2 compounds drawn at random from the list so far:
Row | SMILES | IC50 [µg/mL] | CC50 [µg/mL]
48 | CCCNC(C)C(=O)Nc1ccccc1C (stereo not drawn) | > 20 | –
29 | CCN(CC)CC#CCOC(=O)C(O)(c1ccccc1)C1CCCCC1 (stereo not drawn) | > 20 | –
